Assay results as given in the supplement of paper PMC12823440, “Inhibitors supercharge kinase turnover through native proteolytic circuits” (Nature, 2025).
Where a name gives a salt, the structure may show the parent alone. The list shows a part of the results. Hit calls seldom repeat between salt and free forms of one compound.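 Kinases were expressed as nanoluciferase fusions in K562 cells and luminescence was read every 4 h between 2 and 18 h as percent of control, DMSO set to 100% and a positive control to 0%. A time point counts as decreased when the signal drops significantly (2 sigma). The hit call is the authors' own, does not follow from the count of time points alone, and its rule is not shown.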

Amino acid sequences for entries named in this document (tags omitted). A change or cut given only in a name is not applied to a line headed by its entry.
UniProt P00519, whole entry: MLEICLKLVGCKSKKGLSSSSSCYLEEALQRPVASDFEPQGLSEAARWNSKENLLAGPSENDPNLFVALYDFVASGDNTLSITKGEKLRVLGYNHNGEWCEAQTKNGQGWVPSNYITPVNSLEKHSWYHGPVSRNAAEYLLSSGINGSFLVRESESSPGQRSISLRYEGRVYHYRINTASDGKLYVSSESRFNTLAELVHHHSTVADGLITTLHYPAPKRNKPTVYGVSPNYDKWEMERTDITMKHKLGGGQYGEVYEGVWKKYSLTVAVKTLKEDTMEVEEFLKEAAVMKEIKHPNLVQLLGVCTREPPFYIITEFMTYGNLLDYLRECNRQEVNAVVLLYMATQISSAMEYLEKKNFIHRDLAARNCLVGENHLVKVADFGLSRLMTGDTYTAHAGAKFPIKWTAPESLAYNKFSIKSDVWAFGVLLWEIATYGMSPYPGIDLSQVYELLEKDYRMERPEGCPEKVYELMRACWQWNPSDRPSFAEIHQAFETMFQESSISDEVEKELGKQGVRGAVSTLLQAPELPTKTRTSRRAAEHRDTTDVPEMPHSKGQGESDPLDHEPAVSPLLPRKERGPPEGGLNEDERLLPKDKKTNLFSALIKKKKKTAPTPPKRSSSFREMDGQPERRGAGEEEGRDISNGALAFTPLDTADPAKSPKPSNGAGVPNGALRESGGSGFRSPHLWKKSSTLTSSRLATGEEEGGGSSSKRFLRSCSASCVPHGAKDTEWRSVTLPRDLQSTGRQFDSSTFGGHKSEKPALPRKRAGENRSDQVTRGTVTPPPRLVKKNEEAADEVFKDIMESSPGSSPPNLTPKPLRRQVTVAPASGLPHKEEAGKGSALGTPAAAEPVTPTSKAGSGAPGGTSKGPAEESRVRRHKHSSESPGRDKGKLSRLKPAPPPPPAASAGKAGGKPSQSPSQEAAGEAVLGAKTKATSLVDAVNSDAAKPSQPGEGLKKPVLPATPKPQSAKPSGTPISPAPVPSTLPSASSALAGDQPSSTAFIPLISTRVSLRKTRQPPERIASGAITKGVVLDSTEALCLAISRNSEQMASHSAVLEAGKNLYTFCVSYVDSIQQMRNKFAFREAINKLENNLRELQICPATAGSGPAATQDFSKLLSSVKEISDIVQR
UniProt Q9UM73: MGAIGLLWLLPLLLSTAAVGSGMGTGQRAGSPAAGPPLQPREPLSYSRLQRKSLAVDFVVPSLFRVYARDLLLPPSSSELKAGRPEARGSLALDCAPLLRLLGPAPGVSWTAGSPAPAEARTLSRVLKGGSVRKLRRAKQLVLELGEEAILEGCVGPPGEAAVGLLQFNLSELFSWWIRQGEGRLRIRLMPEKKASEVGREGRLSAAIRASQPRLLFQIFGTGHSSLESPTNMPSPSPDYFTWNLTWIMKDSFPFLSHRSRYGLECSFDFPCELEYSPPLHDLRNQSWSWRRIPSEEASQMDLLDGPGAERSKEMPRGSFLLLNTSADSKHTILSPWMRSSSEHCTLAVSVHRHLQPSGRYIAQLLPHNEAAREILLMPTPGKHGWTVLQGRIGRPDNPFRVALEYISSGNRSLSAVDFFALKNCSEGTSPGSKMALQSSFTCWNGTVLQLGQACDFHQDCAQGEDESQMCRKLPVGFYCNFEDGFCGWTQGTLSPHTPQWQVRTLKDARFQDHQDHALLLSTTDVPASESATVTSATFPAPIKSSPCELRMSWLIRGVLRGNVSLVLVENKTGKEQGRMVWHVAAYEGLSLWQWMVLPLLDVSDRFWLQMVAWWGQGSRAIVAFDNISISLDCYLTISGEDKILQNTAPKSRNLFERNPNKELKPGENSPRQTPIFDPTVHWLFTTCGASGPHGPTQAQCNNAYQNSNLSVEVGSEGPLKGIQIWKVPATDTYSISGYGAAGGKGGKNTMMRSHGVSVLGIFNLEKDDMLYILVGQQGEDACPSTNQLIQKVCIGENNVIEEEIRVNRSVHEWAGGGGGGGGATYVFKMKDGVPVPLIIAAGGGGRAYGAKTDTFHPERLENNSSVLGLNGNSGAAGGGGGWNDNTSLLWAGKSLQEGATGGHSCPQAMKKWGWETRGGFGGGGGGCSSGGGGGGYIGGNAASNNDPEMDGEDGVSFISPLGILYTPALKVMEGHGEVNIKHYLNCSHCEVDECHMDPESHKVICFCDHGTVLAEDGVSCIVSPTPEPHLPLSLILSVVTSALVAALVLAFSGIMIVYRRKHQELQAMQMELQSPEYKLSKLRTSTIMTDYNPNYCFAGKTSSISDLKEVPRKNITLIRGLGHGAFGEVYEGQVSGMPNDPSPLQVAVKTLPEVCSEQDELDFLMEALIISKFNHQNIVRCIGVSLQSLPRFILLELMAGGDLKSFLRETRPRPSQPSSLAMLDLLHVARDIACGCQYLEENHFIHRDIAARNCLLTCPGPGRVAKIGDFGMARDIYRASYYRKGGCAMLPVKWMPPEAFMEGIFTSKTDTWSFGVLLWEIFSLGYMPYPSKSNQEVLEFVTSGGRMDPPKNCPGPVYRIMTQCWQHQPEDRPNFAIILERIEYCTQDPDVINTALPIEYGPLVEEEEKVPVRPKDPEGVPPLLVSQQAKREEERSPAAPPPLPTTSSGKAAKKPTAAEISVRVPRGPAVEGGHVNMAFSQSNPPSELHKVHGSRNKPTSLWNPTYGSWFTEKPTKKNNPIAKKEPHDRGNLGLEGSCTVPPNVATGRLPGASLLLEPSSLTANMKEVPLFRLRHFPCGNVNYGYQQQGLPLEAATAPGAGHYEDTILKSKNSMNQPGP
UniProt P10398: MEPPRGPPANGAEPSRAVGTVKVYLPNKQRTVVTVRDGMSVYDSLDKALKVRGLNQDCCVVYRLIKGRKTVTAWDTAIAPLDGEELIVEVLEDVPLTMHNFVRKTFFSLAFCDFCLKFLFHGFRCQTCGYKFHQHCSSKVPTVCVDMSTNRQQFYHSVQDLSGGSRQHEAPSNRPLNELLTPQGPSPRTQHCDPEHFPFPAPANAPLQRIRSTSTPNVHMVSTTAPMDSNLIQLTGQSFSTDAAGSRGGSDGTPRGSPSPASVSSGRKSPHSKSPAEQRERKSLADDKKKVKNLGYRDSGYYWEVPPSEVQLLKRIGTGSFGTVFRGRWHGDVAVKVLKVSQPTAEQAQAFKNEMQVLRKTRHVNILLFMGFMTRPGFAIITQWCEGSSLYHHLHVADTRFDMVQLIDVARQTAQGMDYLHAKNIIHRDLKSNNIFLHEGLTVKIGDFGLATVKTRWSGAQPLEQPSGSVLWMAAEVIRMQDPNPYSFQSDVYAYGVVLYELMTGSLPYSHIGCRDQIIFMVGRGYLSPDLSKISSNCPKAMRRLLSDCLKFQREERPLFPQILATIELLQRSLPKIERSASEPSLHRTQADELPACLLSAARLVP
UniProt Q96GD4, whole entry: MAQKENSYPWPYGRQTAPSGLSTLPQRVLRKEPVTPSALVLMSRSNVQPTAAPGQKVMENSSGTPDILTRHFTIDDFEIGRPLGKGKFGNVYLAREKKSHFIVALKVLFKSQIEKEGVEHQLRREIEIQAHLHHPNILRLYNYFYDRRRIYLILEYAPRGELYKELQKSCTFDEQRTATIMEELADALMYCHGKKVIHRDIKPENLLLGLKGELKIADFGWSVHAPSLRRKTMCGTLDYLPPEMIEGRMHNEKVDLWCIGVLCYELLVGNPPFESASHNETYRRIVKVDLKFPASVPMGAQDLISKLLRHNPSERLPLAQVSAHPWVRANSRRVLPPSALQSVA
UniProt P51813: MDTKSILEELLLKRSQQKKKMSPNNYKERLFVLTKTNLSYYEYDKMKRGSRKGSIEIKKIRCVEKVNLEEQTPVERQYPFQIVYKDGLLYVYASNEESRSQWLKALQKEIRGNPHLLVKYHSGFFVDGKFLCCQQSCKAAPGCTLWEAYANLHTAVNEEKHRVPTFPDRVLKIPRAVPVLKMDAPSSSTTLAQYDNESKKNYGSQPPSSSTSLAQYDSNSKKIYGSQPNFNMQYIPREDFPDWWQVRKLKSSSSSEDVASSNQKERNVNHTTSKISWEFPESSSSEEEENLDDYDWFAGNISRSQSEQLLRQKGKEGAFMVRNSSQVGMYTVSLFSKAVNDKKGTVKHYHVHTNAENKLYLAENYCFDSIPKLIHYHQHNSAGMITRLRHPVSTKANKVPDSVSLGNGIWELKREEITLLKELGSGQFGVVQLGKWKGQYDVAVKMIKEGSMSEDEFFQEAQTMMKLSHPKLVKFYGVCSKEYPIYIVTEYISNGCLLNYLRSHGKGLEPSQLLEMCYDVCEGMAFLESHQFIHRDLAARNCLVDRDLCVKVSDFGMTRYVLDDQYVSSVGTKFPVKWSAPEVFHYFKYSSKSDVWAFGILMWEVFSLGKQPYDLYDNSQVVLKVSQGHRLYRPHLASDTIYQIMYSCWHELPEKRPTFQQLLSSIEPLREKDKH
UniProt Q06187: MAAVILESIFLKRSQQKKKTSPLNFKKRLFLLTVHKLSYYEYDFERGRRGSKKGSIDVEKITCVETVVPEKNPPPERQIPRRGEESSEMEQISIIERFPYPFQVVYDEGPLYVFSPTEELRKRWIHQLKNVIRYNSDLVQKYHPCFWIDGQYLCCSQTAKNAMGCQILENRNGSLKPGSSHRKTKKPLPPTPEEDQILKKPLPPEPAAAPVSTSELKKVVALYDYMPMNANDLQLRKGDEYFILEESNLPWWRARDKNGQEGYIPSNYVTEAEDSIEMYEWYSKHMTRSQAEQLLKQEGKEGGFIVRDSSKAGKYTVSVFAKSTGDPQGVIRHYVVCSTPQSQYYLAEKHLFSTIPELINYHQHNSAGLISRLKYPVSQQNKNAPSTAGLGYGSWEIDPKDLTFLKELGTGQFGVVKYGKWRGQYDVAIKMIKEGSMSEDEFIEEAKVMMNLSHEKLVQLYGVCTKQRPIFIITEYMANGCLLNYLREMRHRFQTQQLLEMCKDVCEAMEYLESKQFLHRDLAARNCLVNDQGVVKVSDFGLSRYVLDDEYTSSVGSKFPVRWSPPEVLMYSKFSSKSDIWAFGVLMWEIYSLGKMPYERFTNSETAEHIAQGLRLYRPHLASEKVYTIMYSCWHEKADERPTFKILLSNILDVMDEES
UniProt Q9UQM7, whole entry: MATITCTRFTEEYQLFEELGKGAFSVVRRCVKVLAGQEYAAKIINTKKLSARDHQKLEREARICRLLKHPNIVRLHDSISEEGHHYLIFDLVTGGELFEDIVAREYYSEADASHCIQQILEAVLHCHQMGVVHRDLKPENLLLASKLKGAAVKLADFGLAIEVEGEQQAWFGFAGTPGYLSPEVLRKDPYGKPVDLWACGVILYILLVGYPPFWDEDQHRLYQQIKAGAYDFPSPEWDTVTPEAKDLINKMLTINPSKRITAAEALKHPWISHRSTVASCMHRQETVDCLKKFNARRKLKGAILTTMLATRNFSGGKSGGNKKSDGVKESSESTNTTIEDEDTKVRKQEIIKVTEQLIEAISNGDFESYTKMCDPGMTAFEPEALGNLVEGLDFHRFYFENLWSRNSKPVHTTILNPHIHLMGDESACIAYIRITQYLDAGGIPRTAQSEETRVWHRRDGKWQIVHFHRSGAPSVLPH
UniProt Q00526: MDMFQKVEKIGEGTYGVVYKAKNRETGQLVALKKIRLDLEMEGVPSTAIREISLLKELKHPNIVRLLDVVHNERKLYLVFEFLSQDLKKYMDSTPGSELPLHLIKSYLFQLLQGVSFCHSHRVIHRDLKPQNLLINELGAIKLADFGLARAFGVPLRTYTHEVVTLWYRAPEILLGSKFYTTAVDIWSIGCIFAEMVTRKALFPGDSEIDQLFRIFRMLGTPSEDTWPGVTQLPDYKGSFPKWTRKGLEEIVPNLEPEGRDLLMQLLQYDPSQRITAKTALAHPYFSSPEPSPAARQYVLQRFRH
UniProt Q00535, whole entry, looked up: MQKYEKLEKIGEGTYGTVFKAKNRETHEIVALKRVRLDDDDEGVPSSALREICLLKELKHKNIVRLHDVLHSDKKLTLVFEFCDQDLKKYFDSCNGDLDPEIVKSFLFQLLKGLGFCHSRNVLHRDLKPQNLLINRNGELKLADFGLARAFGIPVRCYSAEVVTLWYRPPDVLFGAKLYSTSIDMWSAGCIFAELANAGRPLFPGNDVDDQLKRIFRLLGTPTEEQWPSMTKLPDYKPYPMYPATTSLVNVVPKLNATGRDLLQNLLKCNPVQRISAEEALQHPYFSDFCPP
UniProt Q00534, whole entry: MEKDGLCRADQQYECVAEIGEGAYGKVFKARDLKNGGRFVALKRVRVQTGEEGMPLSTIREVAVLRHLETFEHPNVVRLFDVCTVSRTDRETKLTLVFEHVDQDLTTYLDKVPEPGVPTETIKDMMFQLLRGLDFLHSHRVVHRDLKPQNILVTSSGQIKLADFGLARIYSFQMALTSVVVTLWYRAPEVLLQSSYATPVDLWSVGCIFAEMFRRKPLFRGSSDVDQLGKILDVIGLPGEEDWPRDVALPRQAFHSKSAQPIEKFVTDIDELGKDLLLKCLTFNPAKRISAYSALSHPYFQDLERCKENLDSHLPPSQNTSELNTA

Legend:
Test in all cases: kinase-Nluc reporter destabilization hit call (1 = scored as downregulated) (binary); higher = compound decreases kinase abundance
Details in all cases: K562; 2-18 h
[1] = target: ABL1 (UniProt P00519)
[2] = target: AKT1 (UniProt P31749)
[3] = target: ALK (UniProt Q9UM73)
[4] = target: ARAF (UniProt P10398)
[5] = target: AURKA (UniProt O14965)
[6] = target: AURKB (UniProt Q96GD4)
[7] = target: AURKC (UniProt Q9UQB9)
[8] = target: BLK (UniProt P51451)
[9] = target: BMX (UniProt P51813)
[10] = target: BRAF (UniProt P15056)
[11] = system: BRAF_V600E
[12] = target: BTK (UniProt Q06187)
[13] = target: CAMK2A (UniProt Q9UQM7)
[14] = target: CAMK2G (UniProt Q13555)
[15] = target: CDK10 (UniProt Q15131)
[16] = target: CDK2 (UniProt P24941)
[17] = target: CDK3 (UniProt Q00526)
[18] = target: CDK4 (UniProt P11802)
[19] = target: CDK5 (UniProt Q00535)
[20] = target: CDK6 (UniProt Q00534)

Measured: kinase-Nluc reporter destabilization hit call

CCOC(=O)C1=C[C@]2(CC)CCCN3CCc4c(n1c1ccccc41)[C@@H]32 [Vinpocetine] (10 µM)
inactive: [1] 0 | [2] 0 | [3] 0 | [4] 0 | [5] 0 | [6] 0 | [7] 0 | [8] 0 | [9] 0 | [10] 0 | [11] 0 | [12] 0 | [13] 0 | [14] 0 | [15] 0 | [16] 0 | [17] 0 | [18] 0 | [19] 0 | [20] 0

C=CC(=O)Nc1cc(C(=O)NC)cc(-c2n[nH]c3ccccc23)c1 (10 µM)
active: [11] 1
inactive: [1] 0 | [2] 0 | [3] 0 | [4] 0 | [5] 0 | [6] 0 | [7] 0 | [8] 0 | [9] 0 | [10] 0 | [12] 0 | [13] 0 | [14] 0 | [15] 0 | [16] 0 | [17] 0 | [18] 0 | [19] 0 | [20] 0

CNC(=O)c1nnc(NC(=O)C2CC2)cc1Nc1cccc(-c2ncn(C)n2)c1OC [Deucravacitinib] (10 µM)
inactive: [1] 0 | [2] 0 | [3] 0 | [4] 0 | [5] 0 | [6] 0 | [7] 0 | [8] 0 | [9] 0 | [10] 0 | [11] 0 | [12] 0 | [13] 0 | [14] 0 | [15] 0 | [16] 0 | [17] 0 | [18] 0 | [19] 0 | [20] 0

COC(=O)c1cc2c(OC(C)C)cc(OC(C)C)cc2[nH]1 (2.5 µM)
inactive: [1] 0 | [2] 0 | [3] 0 | [4] 0 | [5] 0 | [6] 0 | [7] 0 | [8] 0 | [9] 0 | [10] 0 | [11] 0 | [12] 0 | [13] 0 | [14] 0 | [15] 0 | [16] 0 | [17] 0 | [18] 0 | [19] 0 | [20] 0

C[C@@H]1CC[C@]2(C(=O)O)CC[C@]3(C)C(=CC[C@@H]4[C@@]5(C)CC[C@H](O)[C@@](C)(CO)[C@@H]5CC[C@]43C)[C@@H]2[C@]1(C)O [Rotundic acid] (10 µM)
inactive: [1] 0 | [2] 0 | [3] 0 | [4] 0 | [5] 0 | [6] 0 | [7] 0 | [8] 0 | [9] 0 | [10] 0 | [11] 0 | [12] 0 | [13] 0 | [14] 0 | [15] 0 | [16] 0 | [17] 0 | [18] 0 | [19] 0 | [20] 0

CCn1c(-c2nonc2N)nc2c(C#CCO)ncc(OCCCN)c21 [AKT Kinase Inhibitor] (10 µM)
inactive: [1] 0 | [2] 0 | [3] 0 | [4] 0 | [5] 0 | [6] 0 | [7] 0 | [8] 0 | [9] 0 | [10] 0 | [11] 0 | [12] 0 | [13] 0 | [14] 0 | [15] 0 | [16] 0 | [17] 0 | [18] 0 | [19] 0 | [20] 0

Cc1ccc(-c2csc(Cn3nc(CC4OCCCO4)c4ccccc4c3=O)n2)cc1 (10 µM)
inactive: [1] 0 | [2] 0 | [3] 0 | [4] 0 | [5] 0 | [6] 0 | [7] 0 | [8] 0 | [9] 0 | [10] 0 | [11] 0 | [12] 0 | [13] 0 | [14] 0 | [15] 0 | [16] 0 | [17] 0 | [18] 0 | [19] 0 | [20] 0

C=CC(=O)Nc1cccc(Oc2nc(Nc3ccc(N4CCN(C)CC4)cc3)ncc2Cl)c1 (2.5 µM)
inactive: [1] 0 | [2] 0 | [3] 0 | [4] 0 | [5] 0 | [6] 0 | [7] 0 | [8] 0 | [9] 0 | [10] 0 | [11] 0 | [12] 0 | [13] 0 | [14] 0 | [15] 0 | [16] 0 | [17] 0 | [18] 0 | [19] 0 | [20] 0

Cn1cc(C2=C(c3c4n(c5ccccc35)CCC(CN)C4)C(=O)NC2=O)c2ccccc21 (stereo not given) [Bisindolylmaleimide X (hydrochloride)] (2.5 µM)
inactive: [1] 0 | [2] 0 | [3] 0 | [4] 0 | [5] 0 | [6] 0 | [7] 0 | [8] 0 | [9] 0 | [10] 0 | [11] 0 | [12] 0 | [13] 0 | [14] 0 | [15] 0 | [16] 0 | [17] 0 | [18] 0 | [19] 0 | [20] 0
